Experimental data: PubChem BioAssay AID1508597 (Cure First, 2020)
Here is one part, drawn at random, of about 2,100 deposited reagents. 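Calls flag viability under 80% in either arm, not effects specific to rucaparib; the reference for percent is not stated.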 A number with no mark means an inactive call. Not given: the 100% reference.

- Test: 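Knock-downs altering ovarian cancer cell survival with or without PARP inhibitor rucaparib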 (primary screen)
- Cell system: human ovarian carcinoma lines grown from tumours: OCI-P5x (papillary serous) and OCI-C5x (clear cell)
- Knock-down reagent: siRNA pool against human genes, 1.25 pmol siRNA per well
- Time to read-out: 72 h or 96 h, depending on the cell culture
- Challenge: rucaparib 20 µM (about IC30) or vehicle, present until read-out
- Read-out: 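Luminescent ATP-based viability assay read 72 or 96 h after transfection, depending on culture, given as normalised percent viability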
- Direction: viability, normalised: higher = more viable cells remaining
- Hit rule: 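Active when normalised viability falls below 80 percent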
- Meaning of the calls: active = viability under 80%; inactive = viability 80% or more

The first 2 records as a preview:
viability, normalised (%) | gene | rucaparib or vehicle | cell line | technical replicate
62.6 (active) | LTK | Rucaparib | OCI-C5x (clear cell) | 1
56.2 (active) | LTK | Rucaparib | OCI-C5x (clear cell) | 2

The listing, from the start:
viability, normalised (%) | gene | rucaparib or vehicle | cell line | technical replicate
62.6 (active) | LTK | Rucaparib | OCI-C5x (clear cell) | 1
56.2 (active) | LTK | Rucaparib | OCI-C5x (clear cell) | 2
45.4 (active) | LTK | Rucaparib | OCI-C5x (clear cell) | 3
65 (active) | LTK | Rucaparib | OCI-P5x (serous) | 1
60.3 (active) | LTK | Rucaparib | OCI-P5x (serous) | 2
55.8 (active) | LTK | Rucaparib | OCI-P5x (serous) | 3
61.7 (active) | LTK | Vehicle | OCI-C5x (clear cell) | 1
38.6 (active) | LTK | Vehicle | OCI-C5x (clear cell) | 2
45.1 (active) | LTK | Vehicle | OCI-C5x (clear cell) | 3
63.2 (active) | LTK | Vehicle | OCI-P5x (serous) | 1
54.5 (active) | LTK | Vehicle | OCI-P5x (serous) | 2
62.8 (active) | LTK | Vehicle | OCI-P5x (serous) | 3
52.8 (active) | ROCK2 | Rucaparib | OCI-C5x (clear cell) | 1
45.2 (active) | ROCK2 | Rucaparib | OCI-C5x (clear cell) | 2
46.3 (active) | ROCK2 | Rucaparib | OCI-C5x (clear cell) | 3
74.3 (active) | ROCK2 | Rucaparib | OCI-P5x (serous) | 1
105 | ROCK2 | Rucaparib | OCI-P5x (serous) | 2
81.9 | ROCK2 | Rucaparib | OCI-P5x (serous) | 3
61.7 (active) | ROCK2 | Vehicle | OCI-C5x (clear cell) | 1
61.1 (active) | ROCK2 | Vehicle | OCI-C5x (clear cell) | 2
52 (active) | ROCK2 | Vehicle | OCI-C5x (clear cell) | 3
78.9 (active) | ROCK2 | Vehicle | OCI-P5x (serous) | 1
75.7 (active) | ROCK2 | Vehicle | OCI-P5x (serous) | 2
84.1 | ROCK2 | Vehicle | OCI-P5x (serous) | 3
75.9 (active) | GUCY2F | Rucaparib | OCI-C5x (clear cell) | 1
77.9 (active) | GUCY2F | Rucaparib | OCI-C5x (clear cell) | 2
80.7 | GUCY2F | Rucaparib | OCI-C5x (clear cell) | 3
94 | GUCY2F | Rucaparib | OCI-P5x (serous) | 1
89.4 | GUCY2F | Rucaparib | OCI-P5x (serous) | 2
93.3 | GUCY2F | Rucaparib | OCI-P5x (serous) | 3
79.8 (active) | GUCY2F | Vehicle | OCI-C5x (clear cell) | 1
90.2 | GUCY2F | Vehicle | OCI-C5x (clear cell) | 2
65.5 (active) | GUCY2F | Vehicle | OCI-C5x (clear cell) | 3
125 | GUCY2F | Vehicle | OCI-P5x (serous) | 1
102 | GUCY2F | Vehicle | OCI-P5x (serous) | 2
125 | GUCY2F | Vehicle | OCI-P5x (serous) | 3
44.9 (active) | AK2 | Rucaparib | OCI-C5x (clear cell) | 1
50.7 (active) | AK2 | Rucaparib | OCI-C5x (clear cell) | 2
40.8 (active) | AK2 | Rucaparib | OCI-C5x (clear cell) | 3
91.5 | AK2 | Rucaparib | OCI-P5x (serous) | 1
91.4 | AK2 | Rucaparib | OCI-P5x (serous) | 2
81.4 | AK2 | Rucaparib | OCI-P5x (serous) | 3
49 (active) | AK2 | Vehicle | OCI-C5x (clear cell) | 1
54.2 (active) | AK2 | Vehicle | OCI-C5x (clear cell) | 2
51.9 (active) | AK2 | Vehicle | OCI-C5x (clear cell) | 3
91.5 | AK2 | Vehicle | OCI-P5x (serous) | 1
78.5 (active) | AK2 | Vehicle | OCI-P5x (serous) | 2
83.2 | AK2 | Vehicle | OCI-P5x (serous) | 3
64.5 (active) | GDPD5 | Rucaparib | OCI-C5x (clear cell) | 1
57.7 (active) | GDPD5 | Rucaparib | OCI-C5x (clear cell) | 2
45.7 (active) | GDPD5 | Rucaparib | OCI-C5x (clear cell) | 3
51.4 (active) | GDPD5 | Rucaparib | OCI-P5x (serous) | 1
54.4 (active) | GDPD5 | Rucaparib | OCI-P5x (serous) | 2
51.7 (active) | GDPD5 | Rucaparib | OCI-P5x (serous) | 3
5.73 (active) | GDPD5 | Vehicle | OCI-C5x (clear cell) | 1
43.4 (active) | GDPD5 | Vehicle | OCI-C5x (clear cell) | 2
49.9 (active) | GDPD5 | Vehicle | OCI-C5x (clear cell) | 3
82.8 | GDPD5 | Vehicle | OCI-P5x (serous) | 1
86.5 | GDPD5 | Vehicle | OCI-P5x (serous) | 2
64.6 (active) | GDPD5 | Vehicle | OCI-P5x (serous) | 3
